Measurements reported in article doi:10.1101/2019.12.20.884809.
Read-outs that look alike come from different tables or passages of the source. Results are given in words; binding and its absence hold for the method and conditions named. In cells and extracts the contact can be indirect. Some results given as binding are weak or reduced against the parent protein; the word gives no strength.

Sequences of proteins named here, by UniProt entry; tags and fusion partners are left off.
UniProt Q99497: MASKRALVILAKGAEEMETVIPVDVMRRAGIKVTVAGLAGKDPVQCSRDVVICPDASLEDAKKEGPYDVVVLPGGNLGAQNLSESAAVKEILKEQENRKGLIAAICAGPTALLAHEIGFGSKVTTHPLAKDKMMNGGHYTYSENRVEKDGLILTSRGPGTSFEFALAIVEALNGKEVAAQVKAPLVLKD

How the values were obtained:
[1] = target: PARK7/DJ-1 (human (endogenous in primary Tregs/Teffs)) (UniProt Q99497); test: co-IP
[2] = target: PARK7/DJ-1 (human (endogenous in primary Tregs/Teffs)) (UniProt Q99497); test: co-IP; remark: listed apart in the source

binding [1]: binds
binding [2]: binds weakly
B1: pyruvate dehydrogenase (lipoamide) beta (protein, UniProt P11177 31-359)
chain: LQVTVRDAINQGMDEELERDEKVFLLGEEVAQYDGAYKVSRGLWKKYGDKRIIDTPISEMGFAGIAVGAAMAGLRPICEFMTFNFSMQAIDQVINSAAKTYYMSGGLQPVPIVFRGPNGASAGVAAQHSQCFAAWYGHCPGLKVVSPWNSEDAKGLIKSAIRDNNPVVVLENELMYGVPFEFPPEAQSKDFLIPIGKAKIERQGTHITVVSHSRPVGHCLEAAAVLSKEGVECEVINMRTIRPMDMETIEASVMKTNHLVTVEGGWPQFGVGAEICARIMEGPAFNFLDAPAVRVTGADVPMPYAKILEDNSIPQVKDIIFAIKKTLNI
